The values that follow come from publication PMC6497721, “DNA methylation repels targeting of Arabidopsis REF6”.

By UniProt entry, the sequences of proteins in these tests, tags left out. Residues count along the entry.
UniProt Q9STM3, 1239-1360: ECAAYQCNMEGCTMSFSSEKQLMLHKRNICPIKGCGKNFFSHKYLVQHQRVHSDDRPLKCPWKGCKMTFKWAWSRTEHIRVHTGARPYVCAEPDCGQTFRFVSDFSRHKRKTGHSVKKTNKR

No signal at the amounts used counts as a negative. For some assays here: At least one verdict was read from the data and is not stated in words by the source. For some assays here: For at least one entry, the source does not settle the construct or the ends of the probe. For some assays here: The comparison behind a weaker result is the experiment's own reference, which may not be listed here.

For data set [1], the target named is REF6 ZnF1-4 (Arabidopsis thaliana) (UniProt Q9STM3). The experiment in a line: ITC. The note with it: 20 uM ZnCl2, ITC: 20 mM Tris-HCl pH 7.5, 150 mM NaCl, 20 uM ZnCl2, 25 C, recombinant protein, residues 1239-1360, protein details: GST removed by PreScission.
The target of data set [2] is GST-REF6C (ZnF1-4) (Arabidopsis thaliana) (UniProt Q9STM3). Put plainly: EMSA. The note with it: 1 uM ZnSO4, EMSA: 25 mM Tris-HCl pH 8.0, 100 mM NaCl, 2.5 mM MgCl2, 0.1% CA-630, 10% glycerol, 1 uM ZnSO4, 1 mM DTT, on ice, recombinant protein, residues 1239-1360, protein details: N-terminal GST (pGEX-6P-1), label: 5'-32P. In general terms: Mobility shift assays separate free from complexed probe on a gel.

Regarding “TTCTCTGTTTTG (double strand) [NAC004P_5mC5]”, the binding result in data set [1] (5mC at bottom strand position 6) was “no binding”.
On to “TTCTCTGTTTTG (double strand) [NAC004P_5mC1+5mC3]”, for which, in data set [1] (5mC at top strand positions 3 and 5), the binding result is “no binding”.
“CTATCAAATCTTCTATCACCACTCTGTTTTATGGCCATCAAATGATTTCG (double strand) [AT4G11710 50-bp probe]”: the binding result in data set [2] was “binds”.
Regarding “CTATCAAATCTTCTATCACCACTCTGTTTTATGGCCATCAAATGATTTCG (double strand) [AT4G11710 50-bp 5mC1]”, the binding result in data set [2] (5mC at top strand position 22, letters put together from the description) is recorded as “binds more weakly”.
Take “CTATCAAATCTTCTATCACCACTCTGTTTTATGGCCATCAAATGATTTCG (double strand) [AT4G11710 50-bp 5mC5]”: the binding result in data set [2] (5mC at bottom strand position 25 (opposite top G26), letters put together from the description) is listed as “no binding”.
For “GGGAGAATCTCAAACTTTCTCTGTTTTGTCTTTAGAAACTTTGAAATATC (double strand) [NAC004 50-bp 5mC3]”, the binding result in data set [2] (5mC at top strand position 21, letters put together from the description) is recorded as “binds more weakly”.
Take “GGGAGAATCTCAAACTTTCTCTGTTTTGTCTTTAGAAACTTTGAAATATC (double strand) [NAC004 50-bp 5mC5]”: the binding result in data set [2] (5mC at bottom strand position 28 (opposite top G23), letters put together from the description) is recorded as “no binding”.
With “GGGAGAATCTCAAACTTTCTCTGTTTTGTCTTTAGAAACTTTGAAATATC (double strand) [NAC004 50-bp 5mC1+5mC3]”, the binding result in data set [2] (5mC at top strand positions 19 and 21, letters put together from the description) is “no binding”.
With “GGGAGAATCTCAAACTTTCTCTGTTTTGTCTTTAGAAACTTTGAAATATC (double strand) [NAC004 50-bp 5mC1]”, the binding result in data set [2] (5mC at top strand position 19, letters put together from the description) is given as “binds more weakly”.
Turning to “CTATCAAATCTTCTATCACCACTCTGTTTTATGGCCATCAAATGATTTCG (double strand) [AT4G11710 50-bp 5mC3]”, the binding result in data set [2] (5mC at top strand position 24, letters put together from the description) was “binds more weakly”.
As for “CTATCAAATCTTCTATCACCACTCTGTTTTATGGCCATCAAATGATTTCG (double strand) [AT4G11710 50-bp 5mC1+5mC3]”, the binding result in data set [2] (5mC at top strand positions 22 and 24, letters put together from the description) is given as “no binding”.
